Test results from PubChem BioAssay AID2685 (National Center for Advancing Translational Sciences (NCATS), 2010).
Some of the results follow. These are further read-outs of the screen, such as a control signal, another cell line or another target. No call is given for them. The list favours compounds with an active or inconclusive main result. Potencies come from curve fits of mixed quality, noted in brackets.

Experiment: qHTS Assay for Lipid Storage Modulators in Drosophila S3 Cells;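 for cell number change: cells counted by Cell Tracker Red CMTPX staining in the red channel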
Settings: BODIPY lipid droplet fluorescence, 18-24 h; for cell number change: measured here: cell count max response, cells fed with added oleic acid
Method in brief: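 Laser-scanning cytometry quantifies lipid droplet accumulation (500–530 nm total intensity; droplet/cell object ratio) in oleic acid-fed (400 uM added) Drosophila S3 cells treated with a concentration series. 20 uM Triacsin C defined 100% inhibition.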

[1] = measured here: lipid fluorescence (Fed channel) AC50, cells fed with added oleic acid
[2] = measured here: cell number channel AC50, cells fed with added oleic acid

Row | Structure (SMILES) | cell number change [%] | AC50 [1] | AC50 [2]
1 | CCn1ccc(C(=O)NC2CCCC2)n1 | -10.1 | 0.0231 µM [rising, full curve, poor fit] | 
2 | COc1cc(OC)c2cc(C(=O)N/N=C/c3cccc(OC)c3O)[nH]c2c1 | -23.9 |  | 
3 | N#Cc1ccc(NCCc2ccccn2)c([N+](=O)[O-])c1 | -51.7 | 2.59 µM [falling, full curve] | 2.59 µM [falling, full curve]
4 | COc1cccc(CNC(=O)CCC(=O)N2CC(C)Oc3ccccc32)c1OC (configuration not stated) | -19.3 | 32.6 µM [falling, partial curve, poor fit] | 
5 | CSCCC(=O)N1CCC(n2nccc2NC(=O)CCc2ccccc2)CC1 | 39.1 |  | 3.66 µM [rising, full curve]
6 | O=c1cc(CSc2ccccc2)nc(-c2ccccc2)[nH]1 | -7.82 | 6.51 µM [falling, single point] | 
7 | N=c1c2c3c(sc2ncn1Cc1ccco1)CCCCC3 | 11.2 |  | 0.651 µM [rising, partial curve, poor fit]
8 | CC(=O)c1ccc(S(=O)(=O)Nc2cccc(-c3cn4c(n3)SCC4)c2)cc1 | -10.3 | 7.31 µM [falling, single point] | 
9 | COc1ccc(C(=O)NCC(c2ccco2)N2CCc3ccccc32)cc1OC (configuration not stated) | 13.8 | 0.058 µM [rising, full curve, poor fit] | 
10 | O=C(C1CCN(S(=O)(=O)c2ccccc2F)CC1)N1CCc2ccccc21 | 50.7 | 29.1 µM [rising, single point] | 29.1 µM [rising, single point]
11 | COc1ccc(NC(=O)C2CC2)cc1NS(=O)(=O)c1ccc(F)cc1 |  | 0.13 µM [rising, full curve, poor fit] | 
12 | O=S(=O)(Cc1ncc(C(F)(F)F)cc1Cl)c1ccccc1 | -23.9 |  | 0.447 µM [falling, full curve, poor fit]
13 | CN(C)CCNC(=O)/C(=C/c1cccc([N+](=O)[O-])c1)NC(=O)c1ccccc1 | 5.25 | 3.66 µM [rising, single point] | 
14 | Cc1ccc(C)c(C(=O)CN2C(=O)NC3(CCCCCC3)C2=O)c1 | 31.7 |  | 5.8 µM [rising, partial curve]
15 | O=C(Nc1ccc(C2CCCCC2)cc1)C1CCCN(c2ncccn2)C1 (configuration not stated) | -7.32 |  | 6.51 µM [falling, single point]
16 | COc1ccc(N(CC(=O)NCCC(C)C)C(=O)c2snc(C(=O)NC3CCCCC3)c2N)c(OC)c1 | 85.5 | 29.1 µM [rising, single point] | 29.1 µM [rising, single point]
17 | O=C(Nc1ccccn1)c1nc(-c2ccccc2)n(-c2ccccc2)n1 |  | 1.16 µM [rising, partial curve] | 
18 | OCC(O)[C@@H](O[C@H]1O[C@H](CO)[C@@H](O)[C@H](O)[C@H]1O)[C@H](O)[C@@H](O)CO (some centres not stated) | -25.4 | 18.4 µM [falling, partial curve, poor fit] | 
19 | CCOc1ccc(C(=O)NCC(=O)N2CCCC2)cc1 | 18.8 |  | 
20 | Cc1ccc(C(=O)NC2CCCCCC2)o1 | -2.56 | 2.31 µM [rising, single point] | 

At a glance, 16 of the compounds above:
Row | Structure (SMILES) | cell number change [%] | AC50 [1] | AC50 [2]
1 | CCn1ccc(C(=O)NC2CCCC2)n1 | -10.1 | 0.0231 µM [rising, full curve, poor fit] | 
2 | COc1cc(OC)c2cc(C(=O)N/N=C/c3cccc(OC)c3O)[nH]c2c1 | -23.9 |  | 
3 | N#Cc1ccc(NCCc2ccccn2)c([N+](=O)[O-])c1 | -51.7 | 2.59 µM [falling, full curve] | 2.59 µM [falling, full curve]
4 | COc1cccc(CNC(=O)CCC(=O)N2CC(C)Oc3ccccc32)c1OC (configuration not stated) | -19.3 | 32.6 µM [falling, partial curve, poor fit] | 
5 | CSCCC(=O)N1CCC(n2nccc2NC(=O)CCc2ccccc2)CC1 | 39.1 |  | 3.66 µM [rising, full curve]
6 | O=c1cc(CSc2ccccc2)nc(-c2ccccc2)[nH]1 | -7.82 | 6.51 µM [falling, single point] | 
7 | N=c1c2c3c(sc2ncn1Cc1ccco1)CCCCC3 | 11.2 |  | 0.651 µM [rising, partial curve, poor fit]
8 | CC(=O)c1ccc(S(=O)(=O)Nc2cccc(-c3cn4c(n3)SCC4)c2)cc1 | -10.3 | 7.31 µM [falling, single point] | 
9 | COc1ccc(C(=O)NCC(c2ccco2)N2CCc3ccccc32)cc1OC (configuration not stated) | 13.8 | 0.058 µM [rising, full curve, poor fit] | 
10 | O=C(C1CCN(S(=O)(=O)c2ccccc2F)CC1)N1CCc2ccccc21 | 50.7 | 29.1 µM [rising, single point] | 29.1 µM [rising, single point]
11 | COc1ccc(NC(=O)C2CC2)cc1NS(=O)(=O)c1ccc(F)cc1 |  | 0.13 µM [rising, full curve, poor fit] | 
12 | O=S(=O)(Cc1ncc(C(F)(F)F)cc1Cl)c1ccccc1 | -23.9 |  | 0.447 µM [falling, full curve, poor fit]
13 | CN(C)CCNC(=O)/C(=C/c1cccc([N+](=O)[O-])c1)NC(=O)c1ccccc1 | 5.25 | 3.66 µM [rising, single point] | 
14 | Cc1ccc(C)c(C(=O)CN2C(=O)NC3(CCCCCC3)C2=O)c1 | 31.7 |  | 5.8 µM [rising, partial curve]
15 | O=C(Nc1ccc(C2CCCCC2)cc1)C1CCCN(c2ncccn2)C1 (configuration not stated) | -7.32 |  | 6.51 µM [falling, single point]
16 | COc1ccc(N(CC(=O)NCCC(C)C)C(=O)c2snc(C(=O)NC3CCCCC3)c2N)c(OC)c1 | 85.5 | 29.1 µM [rising, single point] | 29.1 µM [rising, single point]

(more compounds)

Row | Structure (SMILES) | cell number change [%] | AC50 [1] | AC50 [2]
21 | Cc1cc(=O)n2nc(N3CCC(C(=O)NCc4ccc(F)cc4)CC3)sc2n1 | -0.885 | 4.61 µM [falling, single point] | 
22 | CCN(CC)CCNC(=O)c1ccc(NC(=O)c2cc(S(=O)(=O)N3CCCCC3)ccc2C)cc1 | 22.1 |  | 
23 | O=C(COC(=O)Cc1ccc(Br)cc1)NC1CCCCC1 | 45.1 | 6.51 µM [rising, single point] | 1.46 µM [rising, full curve]
24 | Cc1cc(NC(=O)c2ccc(NC(=O)C3CCCO3)cc2)ccc1Br (configuration not stated) |  |  | 6.51 µM [rising, single point]
25 | CC(C)NC(=O)CC(=O)N/N=C/c1ccc(F)cc1 | 23.6 | 18.4 µM [rising, single point] | 
26 | CCCOC(=O)c1ccc(NC(=O)C(CC)CC)cc1 | -11.5 | 6.51 µM [falling, single point] | 
27 | Cc1ccc(C)c(NC(=O)CN(C)C(=O)CSC(C)C(=O)Nc2cc(C)on2)c1 (configuration not stated) | 10.9 |  | 
28 | CC(C)N(Cc1ccccc1)S(=O)(=O)c1ccc(F)cc1 | -33.2 | 29.1 µM [falling, single point] | 20.6 µM [falling, single point]
29 | CC(C)CC(=O)N1CCN(S(=O)(=O)c2ccc(Cl)cc2)CC1 | -3.45 | 0.00517 µM [falling, full curve, poor fit] | 
30 | O=C(CSc1ncnc2c1nnn2-c1ccc(F)cc1)NCC1CCCO1 (configuration not stated) | -10.6 | 0.103 µM [falling, full curve, poor fit] | 
31 | CC(C)(C)NC(=O)NC(=O)CSc1ncccn1 | -3.84 | 0.58 µM [falling, single point] | 0.411 µM [falling, single point]
32 | CCN1CCN(C(=O)CCc2nc3ccccc3c(=O)[nH]2)CC1 | -22 |  | 
33 | CCN(CC(=O)NCc1ccc(Cl)cc1)C(=O)c1ccc(S(=O)(=O)NCc2ccco2)cc1 | -35.5 |  | 29.1 µM [falling, single point]
34 | Cc1ccc(CN2CCN(/N=C/c3ccc(C(=O)O)cc3)CC2)c(C)c1 | -8.92 | 20.6 µM [falling, single point] | 
35 | CCOc1ccc(NC(=O)[C@@H](NC(=O)OCc2ccccc2)[C@@H](C)CC)cc1 | -11.8 |  | 
36 | CCc1nc2cc3sc(CC)nc3cc2s1 | 0.209 | 6.51 µM [falling, single point] | 6.51 µM [falling, single point]
37 | COc1ccc(C(C(=O)NC2CCCC2)N(C(=O)c2snc(-c3ccc(F)cc3)c2N)c2cccc(F)c2)cc1 (configuration not stated) | -115 | 7.31 µM [falling, partial curve] | 7.31 µM [falling, partial curve]
38 | O=C(CSCc1ccc(Cl)cc1)NCc1ccc2c(c1)OCO2 | 14.8 |  | 6.51 µM [rising, single point]
39 | Cc1ccc(-c2cc(-c3ccc(F)cc3)c(C#N)c(N)n2)o1 | 0.658 | 0.731 µM [rising, full curve, poor fit] | 
40 | COc1ccc(CNS(=O)(=O)c2ccc(-c3cnc(C4CC4)o3)cc2)cc1 | -13.9 | 0.58 µM [rising, single point] | 

Row | Structure (SMILES) | cell number change [%] | AC50 [1] | AC50 [2]
41 | CN1C(=O)c2ccccc2N(C)C1c1cccc(O)c1 (configuration not stated) | 12.4 | 29.1 µM [rising, single point] | 
42 | Cc1ccc(S(=O)(=O)N2CCOCC2)cc1NC(=O)Cn1cc(C(F)(F)F)cc(Cl)c1=O | -32.6 |  | 16.4 µM [falling, partial curve]
43 | Cc1cc(C)c(S(=O)(=O)c2ccccc2)c(N2CCOCC2)n1 | -30.4 |  | 
44 | CCOC(=O)CCSc1nnc(-c2cccnc2)n1-c1ccccc1OC | 12.6 |  | 
45 | Cc1ccnc(N2CCCC(C(=O)Nc3cc(F)ccc3C)C2)n1 (configuration not stated) | 19.6 | 0.058 µM [rising, full curve, poor fit] | 
46 | Cc1ccsc1C(=O)OCC(=O)c1cc2ccccc2o1 | -0.395 | 16.4 µM [falling, single point] | 
47 | COc1ccc(OC)c(/C=N/Nc2nncn2/N=C/c2cc(OC)ccc2OC)c1 | -26.9 | 6.51 µM [falling, partial curve] | 0.92 µM [falling, full curve, poor fit]
48 | COc1ccc(-c2c(-c3ccccc3OC)oc3ccccc23)cc1F | -40.5 |  | 1.84 µM [falling, partial curve, poor fit]
49 | CCCc1ccc(OC(=O)c2ccc(O)cc2Cl)cc1 | -47 | 20.6 µM [falling, single point] | 18.4 µM [falling, single point]
50 | COc1ccccc1NC(=O)CCC(=O)N(Cc1ccc(OC)c(OC)c1)c1nccs1 | -31.7 | 9.2 µM [falling, partial curve] | 13 µM [falling, partial curve]
51 | N#CCOC(=O)[C@H](Cc1c[nH]c2ccccc12)NS(=O)(=O)c1ccc(Cl)cc1 | 19.6 |  | 
52 | O=C(COc1ccc(C(=O)c2ccccc2)cc1)NCC(=O)Nc1ccccc1Br | 37.5 | 18.4 µM [rising, partial curve] | 10.3 µM [rising, partial curve]
53 | NC(=O)NC(=O)COC(=O)c1ccc(OC(F)(F)F)cc1 | 6.05 |  | 6.51 µM [falling, single point]
54 | CCN(C(=O)COC(=O)c1cc(Cl)ccc1OC)c1c(N)n(Cc2ccccc2)c(=O)[nH]c1=O | 14.8 |  | 0.82 µM [falling, single point]
55 | O=C(COc1ccc2c3c(c(=O)oc2c1)CCC3)N1CCN(c2ccc(F)cc2)CC1 | 8.36 | 5.17 µM [falling, full curve, poor fit] | 
56 | CN1C(=O)/C(=C2\SC(=S)N(C(CCC(=O)O)C(=O)O)C2=O)c2ccccc21 (configuration not stated) | -17.4 | 7.31 µM [falling, partial curve] | 
57 | Cn1cc(Br)c(C(=O)NN2C(=O)C3C4C=CC(C5CC45)C3C2=O)n1 (configuration not stated) | -8.23 | 3.66 µM [falling, full curve, poor fit] | 
58 | Cc1ccc(NC(=O)CN2CCC(C(N)=O)CC2)cc1[N+](=O)[O-] | -19.9 | 6.51 µM [falling, single point] | 
59 | CCc1nc2ccccc2c(NC(=O)CN2CC(C)CC(C)C2)c1C (configuration not stated) |  | 29.1 µM [falling, single point] | 
